Among the data in KR20120084755A are binding values, retold here.

Amino acid sequences for entries named in this document (tags omitted). Residues count along the entry.
UniProt P03420, residues 26-524: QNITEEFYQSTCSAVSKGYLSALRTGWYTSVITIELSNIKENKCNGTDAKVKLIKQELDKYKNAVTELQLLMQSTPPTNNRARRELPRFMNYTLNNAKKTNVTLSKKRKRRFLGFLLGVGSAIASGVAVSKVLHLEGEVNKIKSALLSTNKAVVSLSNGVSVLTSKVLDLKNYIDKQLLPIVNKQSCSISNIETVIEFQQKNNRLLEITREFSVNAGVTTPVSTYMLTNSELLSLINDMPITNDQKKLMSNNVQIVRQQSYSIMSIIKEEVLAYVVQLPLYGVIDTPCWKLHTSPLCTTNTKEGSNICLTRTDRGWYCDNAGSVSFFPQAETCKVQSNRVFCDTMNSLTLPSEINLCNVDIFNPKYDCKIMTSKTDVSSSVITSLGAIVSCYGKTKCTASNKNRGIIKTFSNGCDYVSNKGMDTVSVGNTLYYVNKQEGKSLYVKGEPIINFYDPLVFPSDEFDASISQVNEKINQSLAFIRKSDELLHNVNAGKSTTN

For the test, the target named is RSV A2 F 삼량체 (ILZ-8xHIS에 융합된 F 단백질) (Respiratory Syncytial Virus (RSV), strain A2) (UniProt P03420). The experiment in a line: intracellular staining (FACS) of 293T cells transfected with the F-ILZ-8xHIS construct (Fig. 3d).

These are yes or no findings as the source states them, for the method shown. Some results given as binding are weak or reduced against the parent protein; the word gives no strength.

B1: AM22 (antibody, V domains shown)
VH: QVQLVQSGAEVKKPGATVKVSCKISGHTLIKLSIHWVRQAPGKGLEWMGGYEGEVDEIFYAQKFQHRLTVIADTATDTVYMELGRLTSDDTAVYFCGTLGVTVTEAGLGIDDYWGQGTLVTVSS
VL: EIVLTQSPGTLSLSPGERATLSCRASQIVSRNHLAWYQQKPGQAPRLLIFGASSRATGIPVRFSGSGSGTDFTLTINGLAPEDFAVYYCLSSDSSIFTFGPGTKVDFK
As to B1, the binding result is “binds”.
